# Source: publication doi:10.1101/2021.06.01.446532
# Target: T1, LRRC23-FLAG (UniProt O35125)
# T1 sequence: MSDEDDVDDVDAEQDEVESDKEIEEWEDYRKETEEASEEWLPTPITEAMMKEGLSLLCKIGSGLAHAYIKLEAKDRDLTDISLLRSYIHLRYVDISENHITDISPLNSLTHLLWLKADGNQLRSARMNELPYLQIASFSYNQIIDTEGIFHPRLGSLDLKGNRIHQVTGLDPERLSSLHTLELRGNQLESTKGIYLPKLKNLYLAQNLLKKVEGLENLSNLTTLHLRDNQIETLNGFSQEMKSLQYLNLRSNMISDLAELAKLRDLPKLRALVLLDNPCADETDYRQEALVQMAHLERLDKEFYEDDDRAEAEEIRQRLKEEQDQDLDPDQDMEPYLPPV
# Assay: co-IP
row,binding,Substance
1,binds,RSPH3A-HA
2,binds,RSPH3B-HA
3,binds,RSPH22-HA

# These are yes or no findings as the source states them, for the method shown. Binding seen in cells or lysates may run through a third protein. Binding calls can cover weak binding; strength is not graded here. Where a sequence is shown, tags or fusion partners need not be part of it.
